Some of these results come from one statement about several compounds together.
Biological target: T1, Factor XIIIa (Homo sapiens, UniProt P00488)
T1 construct: purchased Enzyme Research Laboratories
T1 sequence (P00488 39-732 limits assumed): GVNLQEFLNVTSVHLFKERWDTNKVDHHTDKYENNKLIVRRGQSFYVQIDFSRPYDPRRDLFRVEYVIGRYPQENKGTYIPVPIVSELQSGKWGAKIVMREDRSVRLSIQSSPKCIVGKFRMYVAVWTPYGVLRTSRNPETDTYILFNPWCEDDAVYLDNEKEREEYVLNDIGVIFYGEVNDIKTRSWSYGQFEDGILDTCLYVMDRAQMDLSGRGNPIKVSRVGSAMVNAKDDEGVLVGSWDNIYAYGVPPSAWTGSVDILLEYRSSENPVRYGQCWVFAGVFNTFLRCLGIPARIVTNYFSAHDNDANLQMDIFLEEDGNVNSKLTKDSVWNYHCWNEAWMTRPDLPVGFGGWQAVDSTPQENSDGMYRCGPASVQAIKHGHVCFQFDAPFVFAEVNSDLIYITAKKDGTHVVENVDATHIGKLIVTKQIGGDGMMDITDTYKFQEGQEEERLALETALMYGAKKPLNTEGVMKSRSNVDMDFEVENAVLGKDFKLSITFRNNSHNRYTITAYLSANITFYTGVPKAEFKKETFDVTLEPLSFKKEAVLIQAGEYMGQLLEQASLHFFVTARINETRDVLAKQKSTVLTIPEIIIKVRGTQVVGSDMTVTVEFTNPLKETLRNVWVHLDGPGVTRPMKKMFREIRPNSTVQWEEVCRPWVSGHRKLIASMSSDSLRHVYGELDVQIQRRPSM
Test: Peptide labeling reaction with thrombin activated Factor XIIIa, HPLC analysis
Assay type: biochemical
Details: after 24 hrs; HPLC analyses; 1 mM peptide, 0.5 mM cadaverine derivative

Row | estimated extent of labeling of the peptide | Compound
1 | greater than 90% | CN(C)c1cccc2c(S(=O)(=O)NCCCCCN)cccc12 [dansyl cadaverine]
2 | greater than 90% | rhodamine green cadaverine

Reference: patent US20050136491A1, “Method of site specific labeling of proteins and uses therefor” (SmithKline Beecham Corporation, priority 1999, published 2005)
